Data published in paper PMC7819943, “Rice protein-binding microarrays: a tool to detect cis-acting elements near promoter regions in rice”.
This is one part of the list.

What follows are sequences tested against T1, OsSMF1 (Oryza sativa, UniProt Q6ZLB0 1-436) (assay: protein-binding microarray (RPBM); PBS, 2% BSA, 51.3 ng/ul salmon testes DNA, 50 uM zinc acetate, 200 nM TF, 25 C, 1 h; high values mean tight binding). Conditions: protein: recombinant; tags: N-terminal polyhistidine and DsRed monomer fusion (pET32a); chain copies: 2; label: CyDye5-dUTP incorporated in the synthesized complementary strand; 3' TTTTT single-stranded linker to array surface; dsDNA, one strand shown.
T1 sequence: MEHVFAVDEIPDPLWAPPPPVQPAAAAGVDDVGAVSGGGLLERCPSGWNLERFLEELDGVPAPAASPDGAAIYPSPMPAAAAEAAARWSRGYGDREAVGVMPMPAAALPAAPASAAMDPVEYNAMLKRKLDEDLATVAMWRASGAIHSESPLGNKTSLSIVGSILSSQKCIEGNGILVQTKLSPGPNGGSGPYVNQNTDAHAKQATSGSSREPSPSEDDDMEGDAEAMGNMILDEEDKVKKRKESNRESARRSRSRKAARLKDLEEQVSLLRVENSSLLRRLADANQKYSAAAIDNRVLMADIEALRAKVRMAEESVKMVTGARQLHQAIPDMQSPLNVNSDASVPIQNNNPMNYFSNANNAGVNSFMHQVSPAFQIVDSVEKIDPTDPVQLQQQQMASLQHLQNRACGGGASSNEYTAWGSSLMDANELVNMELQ
In short: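 Binding signal is reported as fluorescence intensity per feature (arbitrary units) from an Axon 4000B scanner. Incubation used 200 nM of each Ni–NTA-purified, N-terminally polyhistidine- and DsRed-fused transcription factor from E. coli BL21-CodonPlus on a double-stranded custom Agilent array for 1 h at 25 °C, with 50 µM zinc acetate in the buffer, followed by washing.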

| Sequence | binding signal |
| --- | --- |
| CCCTATGAACTTTACAATACCGTTTAAATTACATCATAAGCGGAGTCACCTAGTGCAG | 3170 fluorescence intensity (a.u.) |
| ACGCCATGTCAATGCCACGTGGGACGAATATCAGTCAAAGCGGAGTCACCTAGTGCAG | 10500 fluorescence intensity (a.u.) |
| TTCGCGGGTGATGTGTTTCTGTTTTGTCCTGAAATTACAGCGGAGTCACCTAGTGCAG | 4830 fluorescence intensity (a.u.) |
| AGCCATTACATCATCCAATTGCATATTTGCATTCTCATCTCGGAGTCACCTAGTGCAG | 4970 fluorescence intensity (a.u.) |
| GCTAGCACTCGCCTCCCTCTGCGCCCACGCCACGCTGTGGCGGAGTCACCTAGTGCAG | 4110 fluorescence intensity (a.u.) |
| AACCAATTCAAGTTAATATTGATTGGCTACACGCATATAGCGGAGTCACCTAGTGCAG | 3550 fluorescence intensity (a.u.) |
| GATGGTAAATCTTTAACATATGCCTTGGAAGATGATGTCACGGAGTCACCTAGTGCAG | 5090 fluorescence intensity (a.u.) |
| CATCCTCAAGAGTTCGCCGACAGCCACCGGTGTCATCTCGCGGAGTCACCTAGTGCAG | 3300 fluorescence intensity (a.u.) |
| CACGGACCCGAAACCACCACTCACACGACGACACGTCCCCCGGAGTCACCTAGTGCAG | 5820 fluorescence intensity (a.u.) |
| GCGGCGCTTGTCAAGCGCCGCCATTGCAGGACGAGCGAAGCGGAGTCACCTAGTGCAG | 5080 fluorescence intensity (a.u.) |
| ACGAGGATGCTGACGGCGGCGTTGCCTCCGCCGGCGCGACCGGAGTCACCTAGTGCAG | 3500 fluorescence intensity (a.u.) |
| GAGCATCCAAGGAACTTGCGTGGCCTGAGATCAACCAGACCGGAGTCACCTAGTGCAG | 4740 fluorescence intensity (a.u.) |
| CTAAATAGAACCACTTTACATTACTATGACATGGCCTGCTCGGAGTCACCTAGTGCAG | 5050 fluorescence intensity (a.u.) |
| CTCCCTCTCCAACACATCGGCAACCAACCACCCTCAACCTCGGAGTCACCTAGTGCAG | 3790 fluorescence intensity (a.u.) |
| ATTATTCCTGGTTTTGGCTGACGTGGCTCCTTTGACTAGACGGAGTCACCTAGTGCAG | 31400 fluorescence intensity (a.u.) |
| GTAACAGATTACATGAGGATTATGCGTCTGCATAGGTGGACGGAGTCACCTAGTGCAG | 3780 fluorescence intensity (a.u.) |
| GATCCACTTGCTTCTCTATGACACGGCAAGCCGAGCCATGCGGAGTCACCTAGTGCAG | 5560 fluorescence intensity (a.u.) |
| AAATTACTAGTGGATAATGATGTGTTATGCTTGTATGTTGCGGAGTCACCTAGTGCAG | 4550 fluorescence intensity (a.u.) |
| AGAGTTGGATCAACTCCACCTAGGTTTAAAATGGAAATTTCGGAGTCACCTAGTGCAG | 3780 fluorescence intensity (a.u.) |
| ATCGACCATGGCTACTCTACGTACGATTACCTTGATCACCCGGAGTCACCTAGTGCAG | 4250 fluorescence intensity (a.u.) |
| ATCTACTTTTAGATAAGCCATGACTAGGCTAGGTGATTGTCGGAGTCACCTAGTGCAG | 5560 fluorescence intensity (a.u.) |

Individual results from the entries so far:
binding signal, ATCGACCATGGCTACTCTACGTACGATTACCTTGATCACCCGGAGTCACCTAGTGCAG reads 4250 fluorescence intensity (a.u.)
binding signal, ATTATTCCTGGTTTTGGCTGACGTGGCTCCTTTGACTAGACGGAGTCACCTAGTGCAG reads 31400 fluorescence intensity (a.u.)

Later entries.

| Sequence | binding signal |
| --- | --- |
| TGCAGGGGCGCAGCACGGGAGGGTGCTTGACGCATACAAGCGGAGTCACCTAGTGCAG | 4030 fluorescence intensity (a.u.) |
| CTGTTGCCTACTCCCTCCTCAATCCTGCAGAAGTTTCTGACGGAGTCACCTAGTGCAG | 3240 fluorescence intensity (a.u.) |
| AAAATATAGGGGAAAGGAAACTGCCACGTGCCCAAGAAGTCGGAGTCACCTAGTGCAG | 7840 fluorescence intensity (a.u.) |
| ACTCGCGGCTGCCCTTGCCAGCTCACTTCCTCCACCGGCGCGGAGTCACCTAGTGCAG | 4650 fluorescence intensity (a.u.) |
| AAAAGAATATATGATTATTTGTTATTAGTCATCTGTGCTTCGGAGTCACCTAGTGCAG | 3360 fluorescence intensity (a.u.) |
| ACACCGAATGCGTCATGCGTCACAGAGTATGAGGCAATACCGGAGTCACCTAGTGCAG | 3660 fluorescence intensity (a.u.) |
| GTTCCAAGGCTACCCTATGCTGCAAAAGAAAGGGGAAAACCGGAGTCACCTAGTGCAG | 3200 fluorescence intensity (a.u.) |
| CTAGAAGTTACCAAGGTACCAGAGCAGACACCTAAGCAGCCGGAGTCACCTAGTGCAG | 3370 fluorescence intensity (a.u.) |
| TGAATTTATTCTTTCCGCATGTGACAACTAGATCTGGCCTCGGAGTCACCTAGTGCAG | 3800 fluorescence intensity (a.u.) |
| CAGCAGGTGCAGGTGCAGGAGCAGGAAGAGTGGAGAGGTGCGGAGTCACCTAGTGCAG | 3320 fluorescence intensity (a.u.) |
| TTGCTGCAAATGACGTCGACATGTGCGTGGCATACCATGGCGGAGTCACCTAGTGCAG | 15000 fluorescence intensity (a.u.) |
| TGATTGTGTTGGTCCTTTTGGCCATTAGCACAGAGTTCGCCGGAGTCACCTAGTGCAG | 20600 fluorescence intensity (a.u.) |
| TGAGTCAAGCGTGTGATGTCACCTGTTGCTGTGGACACAACGGAGTCACCTAGTGCAG | 14500 fluorescence intensity (a.u.) |
| TTTCTCGACGTCCTCTGCCTCGTTTTCTTTGCCGATGATGCGGAGTCACCTAGTGCAG | 3220 fluorescence intensity (a.u.) |
| CCTCTCGCCGTCGCCGGCGCCACCGCGACATGCCTCCTCTCGGAGTCACCTAGTGCAG | 4430 fluorescence intensity (a.u.) |
| GCTTCAAAGTAAGTGTGTGCGTGTAGATGAGTGGACTTGTCGGAGTCACCTAGTGCAG | 4940 fluorescence intensity (a.u.) |
| GAAGGGTCATCGTGACCTTTCTAAGATCTTGCGTCAACTTCGGAGTCACCTAGTGCAG | 3310 fluorescence intensity (a.u.) |
| GTGTTTGATATTTGGAGTTCCATCTCGCCAATTCTACTGACGGAGTCACCTAGTGCAG | 4180 fluorescence intensity (a.u.) |
| CCGCCCCACGCGGCGCCACCACACCACCGCGCGCGTCGCTCGGAGTCACCTAGTGCAG | 5900 fluorescence intensity (a.u.) |
| TGCATTATTGGTGATATGTGACGCATGACGCATGGCTACACGGAGTCACCTAGTGCAG | 7640 fluorescence intensity (a.u.) |
| TGCCAAAGCTTCTGTGTTATTTGCTGGAATTGTCACCCAACGGAGTCACCTAGTGCAG | 3240 fluorescence intensity (a.u.) |
